PubChem BioAssay AID1259308 – NCATS – 2017

Screen: 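Knock-downs that increase output of a recombinant reporter protein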 (primary screen)
Cell system: human HEK293 embryonic kidney cells stably expressing firefly luciferase (HEK-CMV-Luc2-Hygro)
Reagent: single siRNA against human genes, 0.8 pmol siRNA per well
Duration: 72 h
Measurement: 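Luciferase light (ONE-Glo) measured on one replicate plate set and viability (CellTiter-Glo) on the other, scaled to a negative control siRNA, with robust z-scores and luciferase per cell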
Direction: total luciferase, z-score: higher = more reporter protein produced
Hit rule: 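An siRNA counts as active if its total luciferase robust z-score exceeds 3; genes with two or more such siRNAs out of three were retested with fresh siRNAs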
Calls: active = raised luciferase; inactive = no rise
The whole screen tested about 59,000 reagents; below is an unselected part. Of all reagents, about 1,510 (2.6%) are marked active. 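Calls use total luciferase alone and ignore viability, so some active siRNAs may act by altering cell number.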 Entries without a mark were called inactive. The numbers tell different reagents against one gene apart. Not all columns of the deposit are shown.

gene | reagent | total luciferase, z-score
CD209 (CD209 molecule) | 1 | -1.35
CD209 (CD209 molecule) | 2 | -2.1
CD209 (CD209 molecule) | 3 | -1.23
WARS1 (tryptophanyl-tRNA synthetase 1) | 1 | 0.291
WARS1 (tryptophanyl-tRNA synthetase 1) | 2 | 0.795
WARS1 (tryptophanyl-tRNA synthetase 1) | 3 | -1.2
NSG1 (neuronal vesicle trafficking associated 1) | 1 | 0.682
NSG1 (neuronal vesicle trafficking associated 1) | 2 | 1.27
NSG1 (neuronal vesicle trafficking associated 1) | 3 | 0.527
STPG3 (sperm-tail PG-rich repeat containing 3) | 1 | -0.0891
STPG3 (sperm-tail PG-rich repeat containing 3) | 2 | 2.91
STPG3 (sperm-tail PG-rich repeat containing 3) | 3 | -1.45
HMGXB4 (HMG-box containing 4) | 1 | -1.61
HMGXB4 (HMG-box containing 4) | 2 | -1.21
HMGXB4 (HMG-box containing 4) | 3 | 1.61
MICAL1 | 1 | 1.2
MICAL1 | 2 | 0.091
MICAL1 | 3 | -1.8
POLR1F (RNA polymerase I subunit F) | 1 | 1.57
POLR1F (RNA polymerase I subunit F) | 2 | -2.05
POLR1F (RNA polymerase I subunit F) | 3 | -0.426
BARX2 (BARX homeobox 2) | 1 | -0.873
BARX2 (BARX homeobox 2) | 2 | -0.309
BARX2 (BARX homeobox 2) | 3 | 0.529
ENPP7 (ectonucleotide pyrophosphatase/phosphodiesterase 7) | 1 | -0.72
ENPP7 (ectonucleotide pyrophosphatase/phosphodiesterase 7) | 2 | -0.717
ENPP7 (ectonucleotide pyrophosphatase/phosphodiesterase 7) | 3 | -0.687
LBH (LBH regulator of Wnt signaling pathway) | 1 | 0.201
LBH (LBH regulator of Wnt signaling pathway) | 2 | 0.914
LBH (LBH regulator of Wnt signaling pathway) | 3 | 0.675
SPG11 (SPG11 vesicle trafficking associated, spatacsin) | 1 | 3.14 (active)
SPG11 (SPG11 vesicle trafficking associated, spatacsin) | 2 | -1.28
SPG11 (SPG11 vesicle trafficking associated, spatacsin) | 3 | -0.0575
DDB1 (damage specific DNA binding protein 1) | 1 | -0.0441
DDB1 (damage specific DNA binding protein 1) | 2 | -0.593
DDB1 (damage specific DNA binding protein 1) | 3 | 0.635
FAM234A (family with sequence similarity 234 member A) | 1 | 0.117
FAM234A (family with sequence similarity 234 member A) | 2 | -0.677
FAM234A (family with sequence similarity 234 member A) | 3 | 0.855
LRRC37A (leucine rich repeat containing 37A) | 1 | 2.15
LRRC37A (leucine rich repeat containing 37A) | 2 | -0.472
LRRC37A (leucine rich repeat containing 37A) | 3 | 0.305
CCT6B (chaperonin containing TCP1 subunit 6B) | 1 | 2.08
CCT6B (chaperonin containing TCP1 subunit 6B) | 2 | 0.215
CCT6B (chaperonin containing TCP1 subunit 6B) | 3 | 0.0239
OR6A2 (olfactory receptor family 6 subfamily A member 2) | 1 | 2.3
OR6A2 (olfactory receptor family 6 subfamily A member 2) | 2 | 0.708
OR6A2 (olfactory receptor family 6 subfamily A member 2) | 3 | 0.315
IL17RC (interleukin 17 receptor C) | 1 | 1.85
IL17RC (interleukin 17 receptor C) | 2 | 1.46
IL17RC (interleukin 17 receptor C) | 3 | -0.446
GIPC3 (GIPC PDZ domain containing family member 3) | 1 | 0.0605
GIPC3 (GIPC PDZ domain containing family member 3) | 2 | -0.158
GIPC3 (GIPC PDZ domain containing family member 3) | 3 | -0.63
OR4N5 (olfactory receptor family 4 subfamily N member 5) | 1 | 1.3
OR4N5 (olfactory receptor family 4 subfamily N member 5) | 2 | 0.573
OR4N5 (olfactory receptor family 4 subfamily N member 5) | 3 | -0.232

Entries above whose gene name starts with W or w (3):
gene | reagent | total luciferase, z-score
WARS1 (tryptophanyl-tRNA synthetase 1) | 1 | 0.291
WARS1 (tryptophanyl-tRNA synthetase 1) | 2 | 0.795
WARS1 (tryptophanyl-tRNA synthetase 1) | 3 | -1.2
